Laboratory results taken from the supplement of paper PMC10849652.
The list shows a part of the results.

Amino acid sequences for entries named in this document (tags omitted). A change or cut given only in a name is not applied to a line headed by its entry.
UniProt O43405: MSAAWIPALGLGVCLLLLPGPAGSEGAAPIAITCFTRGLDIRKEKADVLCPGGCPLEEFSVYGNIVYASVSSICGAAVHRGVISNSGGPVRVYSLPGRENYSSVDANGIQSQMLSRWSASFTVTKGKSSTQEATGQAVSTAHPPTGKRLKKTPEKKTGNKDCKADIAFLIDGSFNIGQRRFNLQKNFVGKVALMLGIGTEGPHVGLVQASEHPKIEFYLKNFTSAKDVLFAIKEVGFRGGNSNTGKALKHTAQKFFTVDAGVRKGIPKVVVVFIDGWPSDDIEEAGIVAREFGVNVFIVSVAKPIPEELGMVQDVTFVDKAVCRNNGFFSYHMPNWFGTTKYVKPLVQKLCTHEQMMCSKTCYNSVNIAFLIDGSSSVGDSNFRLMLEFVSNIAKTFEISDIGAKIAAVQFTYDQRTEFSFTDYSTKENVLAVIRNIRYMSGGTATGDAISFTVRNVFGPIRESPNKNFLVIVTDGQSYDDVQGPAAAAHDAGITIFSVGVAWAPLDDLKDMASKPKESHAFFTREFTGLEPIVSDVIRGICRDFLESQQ
UniProt Q5RI15: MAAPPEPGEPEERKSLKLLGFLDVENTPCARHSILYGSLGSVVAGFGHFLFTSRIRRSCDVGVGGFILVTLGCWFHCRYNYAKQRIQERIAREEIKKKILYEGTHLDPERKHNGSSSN
UniProt Q9Y2V7: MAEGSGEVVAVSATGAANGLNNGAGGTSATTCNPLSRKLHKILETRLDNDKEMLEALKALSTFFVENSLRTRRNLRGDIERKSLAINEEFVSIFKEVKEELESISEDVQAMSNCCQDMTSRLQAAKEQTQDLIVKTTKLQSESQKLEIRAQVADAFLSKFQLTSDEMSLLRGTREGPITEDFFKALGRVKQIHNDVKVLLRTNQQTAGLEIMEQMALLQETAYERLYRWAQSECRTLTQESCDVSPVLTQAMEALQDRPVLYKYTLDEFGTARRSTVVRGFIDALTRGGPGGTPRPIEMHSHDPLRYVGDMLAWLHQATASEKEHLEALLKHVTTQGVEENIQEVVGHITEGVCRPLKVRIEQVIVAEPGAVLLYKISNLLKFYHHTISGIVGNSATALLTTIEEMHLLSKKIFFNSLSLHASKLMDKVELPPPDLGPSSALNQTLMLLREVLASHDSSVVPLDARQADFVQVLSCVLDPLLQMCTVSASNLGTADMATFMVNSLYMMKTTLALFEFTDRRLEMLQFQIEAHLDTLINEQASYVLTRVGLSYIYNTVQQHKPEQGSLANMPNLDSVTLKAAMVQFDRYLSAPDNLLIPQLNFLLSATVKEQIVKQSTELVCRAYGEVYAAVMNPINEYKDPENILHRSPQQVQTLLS
UniProt P13073, whole entry, looked up: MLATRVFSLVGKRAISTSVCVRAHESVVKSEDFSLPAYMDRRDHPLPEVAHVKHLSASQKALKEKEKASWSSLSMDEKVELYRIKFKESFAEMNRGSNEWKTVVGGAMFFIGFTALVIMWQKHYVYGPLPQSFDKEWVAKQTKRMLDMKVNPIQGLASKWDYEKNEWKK
UniProt Q9P000, whole entry, looked up: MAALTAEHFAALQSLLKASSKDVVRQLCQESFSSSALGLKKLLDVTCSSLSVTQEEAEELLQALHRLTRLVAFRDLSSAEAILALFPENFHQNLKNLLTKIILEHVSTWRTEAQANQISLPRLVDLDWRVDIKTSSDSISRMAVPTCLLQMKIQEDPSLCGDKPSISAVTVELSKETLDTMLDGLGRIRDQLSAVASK
UniProt Q49B96: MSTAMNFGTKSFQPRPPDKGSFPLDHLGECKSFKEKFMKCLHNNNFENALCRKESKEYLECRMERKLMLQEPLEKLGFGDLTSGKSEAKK
UniProt Q8WTW3: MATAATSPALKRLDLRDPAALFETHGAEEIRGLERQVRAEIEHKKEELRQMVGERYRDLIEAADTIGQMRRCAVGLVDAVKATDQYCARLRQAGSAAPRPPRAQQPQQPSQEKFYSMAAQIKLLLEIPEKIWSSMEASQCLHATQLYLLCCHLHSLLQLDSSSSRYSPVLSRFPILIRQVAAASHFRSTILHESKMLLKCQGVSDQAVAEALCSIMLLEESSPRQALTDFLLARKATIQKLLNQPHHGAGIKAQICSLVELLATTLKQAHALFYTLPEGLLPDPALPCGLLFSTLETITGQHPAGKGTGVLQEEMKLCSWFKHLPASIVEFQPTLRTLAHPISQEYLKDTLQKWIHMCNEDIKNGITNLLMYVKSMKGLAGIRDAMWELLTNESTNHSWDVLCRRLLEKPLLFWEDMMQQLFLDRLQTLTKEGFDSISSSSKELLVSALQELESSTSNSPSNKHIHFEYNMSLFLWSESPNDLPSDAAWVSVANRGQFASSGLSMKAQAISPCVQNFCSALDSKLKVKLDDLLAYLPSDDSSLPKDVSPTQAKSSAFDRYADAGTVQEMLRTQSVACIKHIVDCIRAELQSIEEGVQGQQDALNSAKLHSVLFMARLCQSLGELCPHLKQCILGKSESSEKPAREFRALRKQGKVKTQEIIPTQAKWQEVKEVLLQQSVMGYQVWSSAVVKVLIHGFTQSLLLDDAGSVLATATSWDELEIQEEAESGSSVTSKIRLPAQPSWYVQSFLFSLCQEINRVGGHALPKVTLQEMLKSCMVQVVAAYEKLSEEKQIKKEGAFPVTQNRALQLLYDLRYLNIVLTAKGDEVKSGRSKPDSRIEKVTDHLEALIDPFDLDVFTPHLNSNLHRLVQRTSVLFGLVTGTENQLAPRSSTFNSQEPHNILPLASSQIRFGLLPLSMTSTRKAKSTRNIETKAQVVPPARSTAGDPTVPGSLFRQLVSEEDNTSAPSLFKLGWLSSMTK
UniProt Q9GZY4: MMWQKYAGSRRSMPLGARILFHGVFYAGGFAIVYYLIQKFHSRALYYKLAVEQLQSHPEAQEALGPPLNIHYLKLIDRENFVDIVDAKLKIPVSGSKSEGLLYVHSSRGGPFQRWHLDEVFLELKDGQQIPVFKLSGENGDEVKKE
UniProt Q17RY0: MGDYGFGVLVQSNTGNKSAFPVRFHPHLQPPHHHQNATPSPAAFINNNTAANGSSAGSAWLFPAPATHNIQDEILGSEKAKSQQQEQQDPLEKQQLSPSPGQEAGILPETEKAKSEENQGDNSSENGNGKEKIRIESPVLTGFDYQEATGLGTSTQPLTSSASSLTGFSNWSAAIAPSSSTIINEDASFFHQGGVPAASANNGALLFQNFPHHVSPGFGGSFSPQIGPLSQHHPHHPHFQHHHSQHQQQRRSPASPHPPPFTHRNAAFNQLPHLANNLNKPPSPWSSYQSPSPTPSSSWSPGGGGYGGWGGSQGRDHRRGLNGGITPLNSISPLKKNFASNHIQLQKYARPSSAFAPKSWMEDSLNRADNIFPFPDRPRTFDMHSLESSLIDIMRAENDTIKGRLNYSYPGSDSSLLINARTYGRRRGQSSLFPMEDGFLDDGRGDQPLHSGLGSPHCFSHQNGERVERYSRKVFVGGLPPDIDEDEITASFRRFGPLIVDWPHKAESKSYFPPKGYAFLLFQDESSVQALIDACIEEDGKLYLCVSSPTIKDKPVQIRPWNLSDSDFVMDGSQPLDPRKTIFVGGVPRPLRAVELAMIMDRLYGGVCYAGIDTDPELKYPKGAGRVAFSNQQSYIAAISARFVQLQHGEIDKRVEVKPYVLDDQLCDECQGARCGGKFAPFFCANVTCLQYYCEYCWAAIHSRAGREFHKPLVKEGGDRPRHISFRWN
UniProt Q9BT09: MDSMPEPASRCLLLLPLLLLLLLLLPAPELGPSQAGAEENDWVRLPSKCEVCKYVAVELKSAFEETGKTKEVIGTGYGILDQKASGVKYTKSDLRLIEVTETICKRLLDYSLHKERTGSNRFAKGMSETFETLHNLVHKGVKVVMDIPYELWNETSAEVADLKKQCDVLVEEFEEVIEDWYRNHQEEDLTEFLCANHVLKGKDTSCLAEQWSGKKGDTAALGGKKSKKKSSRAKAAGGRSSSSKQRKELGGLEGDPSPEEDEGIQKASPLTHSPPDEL
UniProt Q7KZN9: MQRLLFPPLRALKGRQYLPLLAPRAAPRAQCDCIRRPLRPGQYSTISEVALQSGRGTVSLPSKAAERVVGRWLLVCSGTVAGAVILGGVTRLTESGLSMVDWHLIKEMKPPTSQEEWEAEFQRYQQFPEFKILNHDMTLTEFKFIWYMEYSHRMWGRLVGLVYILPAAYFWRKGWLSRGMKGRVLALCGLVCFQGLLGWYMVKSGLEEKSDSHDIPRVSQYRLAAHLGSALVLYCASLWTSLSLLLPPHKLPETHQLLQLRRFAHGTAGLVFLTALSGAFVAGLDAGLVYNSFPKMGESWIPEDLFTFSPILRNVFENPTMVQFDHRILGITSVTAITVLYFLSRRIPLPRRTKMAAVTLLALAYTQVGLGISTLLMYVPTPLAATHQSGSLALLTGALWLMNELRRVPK
UniProt P10606, whole entry, looked up: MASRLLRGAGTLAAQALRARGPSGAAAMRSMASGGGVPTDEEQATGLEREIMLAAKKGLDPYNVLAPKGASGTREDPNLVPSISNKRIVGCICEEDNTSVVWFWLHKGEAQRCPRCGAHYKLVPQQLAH
UniProt O75208: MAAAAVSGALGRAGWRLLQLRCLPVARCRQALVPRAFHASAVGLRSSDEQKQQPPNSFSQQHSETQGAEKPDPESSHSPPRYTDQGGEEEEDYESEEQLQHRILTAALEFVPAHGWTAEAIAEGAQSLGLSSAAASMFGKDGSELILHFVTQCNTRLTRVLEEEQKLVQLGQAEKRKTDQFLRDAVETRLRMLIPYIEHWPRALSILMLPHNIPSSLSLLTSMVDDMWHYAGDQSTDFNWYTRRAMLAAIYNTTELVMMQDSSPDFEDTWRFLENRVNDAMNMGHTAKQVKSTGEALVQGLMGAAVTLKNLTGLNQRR
UniProt P53621: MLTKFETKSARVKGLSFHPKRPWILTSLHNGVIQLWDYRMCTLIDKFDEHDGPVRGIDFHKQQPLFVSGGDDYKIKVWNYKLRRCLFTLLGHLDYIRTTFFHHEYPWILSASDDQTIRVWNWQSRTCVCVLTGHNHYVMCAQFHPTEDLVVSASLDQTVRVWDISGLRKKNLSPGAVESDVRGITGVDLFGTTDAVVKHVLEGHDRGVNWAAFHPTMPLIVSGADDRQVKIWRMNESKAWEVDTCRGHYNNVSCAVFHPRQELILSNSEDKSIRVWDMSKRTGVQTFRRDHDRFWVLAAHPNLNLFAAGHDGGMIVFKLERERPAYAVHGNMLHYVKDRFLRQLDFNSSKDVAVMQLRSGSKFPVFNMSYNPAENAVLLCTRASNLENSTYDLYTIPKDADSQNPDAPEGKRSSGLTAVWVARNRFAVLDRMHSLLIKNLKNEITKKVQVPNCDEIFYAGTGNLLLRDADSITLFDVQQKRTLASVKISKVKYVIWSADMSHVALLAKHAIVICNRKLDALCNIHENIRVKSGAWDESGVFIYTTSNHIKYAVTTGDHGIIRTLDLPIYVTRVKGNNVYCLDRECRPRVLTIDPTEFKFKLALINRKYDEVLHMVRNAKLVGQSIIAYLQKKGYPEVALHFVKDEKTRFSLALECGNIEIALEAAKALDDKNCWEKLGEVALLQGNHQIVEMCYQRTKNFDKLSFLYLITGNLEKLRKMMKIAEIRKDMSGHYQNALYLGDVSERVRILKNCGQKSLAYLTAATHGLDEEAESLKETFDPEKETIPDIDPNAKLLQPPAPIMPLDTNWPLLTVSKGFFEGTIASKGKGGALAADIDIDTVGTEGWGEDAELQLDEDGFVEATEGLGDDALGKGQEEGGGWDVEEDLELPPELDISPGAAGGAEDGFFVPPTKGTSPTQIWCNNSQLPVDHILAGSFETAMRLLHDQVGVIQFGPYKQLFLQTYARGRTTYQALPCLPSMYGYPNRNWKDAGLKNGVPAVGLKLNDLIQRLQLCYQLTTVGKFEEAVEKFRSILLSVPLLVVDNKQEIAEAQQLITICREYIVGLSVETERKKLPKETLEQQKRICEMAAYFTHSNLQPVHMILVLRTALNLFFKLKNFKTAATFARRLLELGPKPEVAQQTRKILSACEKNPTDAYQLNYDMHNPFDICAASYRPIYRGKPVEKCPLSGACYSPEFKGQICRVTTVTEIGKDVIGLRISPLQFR
UniProt Q9NYJ1, whole entry, looked up: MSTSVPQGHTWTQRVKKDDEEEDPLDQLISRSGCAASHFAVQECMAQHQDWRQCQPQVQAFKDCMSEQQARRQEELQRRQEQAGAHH
UniProt Q9UNS2: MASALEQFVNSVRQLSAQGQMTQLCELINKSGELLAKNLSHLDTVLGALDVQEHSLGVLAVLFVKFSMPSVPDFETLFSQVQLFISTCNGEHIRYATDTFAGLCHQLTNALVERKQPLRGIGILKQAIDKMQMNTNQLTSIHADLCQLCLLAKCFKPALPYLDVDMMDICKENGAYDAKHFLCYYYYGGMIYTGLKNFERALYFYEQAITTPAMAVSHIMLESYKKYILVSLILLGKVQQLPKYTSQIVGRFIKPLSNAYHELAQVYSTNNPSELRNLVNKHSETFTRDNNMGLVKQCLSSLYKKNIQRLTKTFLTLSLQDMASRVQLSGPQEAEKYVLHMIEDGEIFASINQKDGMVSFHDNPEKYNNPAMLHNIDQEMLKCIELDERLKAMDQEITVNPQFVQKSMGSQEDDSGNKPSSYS

What was measured:
Assay in all cases: log2 fold change, soluble protein after heating vs DMSO (PISA); higher = thermal stabilisation; K562 lysate, 10 uM; active = over 0.2 and 3.5 SD of the protein, either way, in both replicates (recomputed)
[1] = compound: C1=CC=C(C=C1)[C@H](COC2=CC3=C(C=C2)NC(=O)N3)NC(=O)C4=CC=CN(C4=O)CC5=CC(=C(C=C5)F)F
In short: (§1)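 A 30 min treatment with 10 μM compound was applied to crude K562 extract at 1 mg/mL protein in PBS pH 7.4 with 1 mM MgCl2. Heating for 3 min spanned 48°C-58°C, after which aliquots were pooled, adjusted to 0.5% NP-40 at 4°C and spun at 21,000xg for 90 min. TMTpro 16plex LC-MS/MS of the supernatant, with channel sums equalised, gave values recorded as log-two fold change in thermal stability against solvent controls, from duplicates.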

[2] = compound: CC1=C(SC2=C1C(=N[C@H](C3=NN=C(N32)C)CC(=O)N)C4=CC=C(C=C4)Cl)C
In short: as §1

[3] = compound: CC1=C2C(=CC=C1)N=C(N(C2=O)C3=CC=CC=C3C)CN4C=NC5=C(N=CN=C54)N
In short: as §1

[4] = compound: Cc1sc2c(c1C)C(c1ccc(Cl)cc1)=N[C@@H](CC(=O)OC(C)(C)C)c1nnc(C)n1-2
In short: as §1

[5] = compound: c1ccc([C@@H]2C[C@H]2NC2CCNCC2)cc1
In short: as §1

Measured: log2 fold change

CPNE3 (UniProt O75131)
inactive: [1] 0.072 | [2] -0.047 | [3] 0.055 | [4] 0.033 | [5] -0.069

COCH (UniProt O43405)
inactive: [1] 0.037 | [2] 0.006 | [3] 0.02 | [4] -0.045 | [5] -0.067

COX20 isoform 2 (UniProt Q5RI15)
inactive: [1] 0.01 | [2] -0.047 | [3] -0.092 | [4] 0.001 | [5] 0.23

COG6 (UniProt Q9Y2V7)
inactive: [1] -0.023 | [2] 0.011 | [3] 0.029 | [4] -0.032 | [5] 0.069

COX4I1 (UniProt P13073)
inactive: [1] -0.036 | [2] 0.022 | [3] -0.019 | [4] -0.015 | [5] -0.022

COMMD9 (UniProt Q9P000)
inactive: [1] 0.114 | [2] -0.1 | [3] 0.008 | [4] -0.013 | [5] 0.074

COPRS (UniProt Q9NQ92)
inactive: [1] -0.007 | [2] -0.026 | [3] 0.012 | [4] -0.137 | [5] -0.063

COX19 (UniProt Q49B96)
inactive: [1] -0.047 | [2] -0.013 | [3] -0.107 | [4] -0.03 | [5] 0.004

COG1 (UniProt Q8WTW3)
inactive: [1] -0.053 | [2] -0.047 | [3] 0.074 | [4] -0.041 | [5] 0.008

COA1 (UniProt Q9GZY4)
inactive: [1] 0.001 | [2] 0.026 | [3] 0.033 | [4] -0.054 | [5] -0.003

COLGALT1 (UniProt Q8NBJ5)
inactive: [1] 0.004 | [2] -0.024 | [3] 0.028 | [4] 0.003 | [5] 0.001

CNOT10 (UniProt Q9H9A5)
inactive: [1] -0.013 | [2] 0.023 | [3] 0.08 | [4] -0.048 | [5] 0.003

2 consecutive entries out of the list so far, for reference:
COLGALT1 (UniProt Q8NBJ5)
inactive: [1] 0.004 | [2] -0.024 | [3] 0.028 | [4] 0.003 | [5] 0.001

CNOT10 (UniProt Q9H9A5)
inactive: [1] -0.013 | [2] 0.023 | [3] 0.08 | [4] -0.048 | [5] 0.003

Following part

CPEB4 (UniProt Q17RY0)
inactive: [1] -0.114 | [2] 0.042 | [3] 0.091 | [4] -0.09 | [5] -0.126

CNPY3 (UniProt Q9BT09)
inactive: [1] 0.019 | [2] -0.001 | [3] 0.004 | [4] -0.013 | [5] 0.041

CNST (UniProt Q6PJW8)
inactive: [1] 0.041 | [2] 0.019 | [3] -0.018 | [4] 0.004 | [5] -0.031

CPSF1 (UniProt Q10570)
inactive: [1] -0.036 | [2] 0.001 | [3] 0.024 | [4] -0.014 | [5] 0.003

CORO7 isoform 3 (UniProt P57737)
inactive: [1] -0.003 | [2] -0.006 | [3] 0.033 | [4] 0.018 | [5] 0.036

COX15 (UniProt Q7KZN9)
inactive: [1] -0.001 | [2] 0.005 | [3] -0.024 | [4] -0.014 | [5] -0.089

COX5B (UniProt P10606)
inactive: [1] -0.031 | [2] -0.037 | [3] -0.037 | [4] -0.039 | [5] 0.064

COQ9 (UniProt O75208)
inactive: [1] -0.102 | [2] -0.069 | [3] 0.026 | [4] 0.015 | [5] 0.08

COPA isoform 2 (UniProt P53621)
inactive: [1] 0.011 | [2] 0.015 | [3] 0.013 | [4] -0.017 | [5] 0.024

COA4 isoform 2 (UniProt Q9NYJ1)
inactive: [1] -0.06 | [2] -0.017 | [3] -0.051 | [4] -0.06 | [5] 0.132

COPS3 (UniProt Q9UNS2)
inactive: [1] 0.036 | [2] 0.014 | [3] 0.016 | [4] -0.027 | [5] -0.035

CNP (UniProt P09543)
inactive: [1] -0.022 | [2] 0.001 | [3] 0.036 | [4] 0.016 | [5] 0.021
